Results on one molecule are retold here after article PMC11011687.

By UniProt entry, the sequences of proteins in these tests, tags left out.
UniProt Q04206: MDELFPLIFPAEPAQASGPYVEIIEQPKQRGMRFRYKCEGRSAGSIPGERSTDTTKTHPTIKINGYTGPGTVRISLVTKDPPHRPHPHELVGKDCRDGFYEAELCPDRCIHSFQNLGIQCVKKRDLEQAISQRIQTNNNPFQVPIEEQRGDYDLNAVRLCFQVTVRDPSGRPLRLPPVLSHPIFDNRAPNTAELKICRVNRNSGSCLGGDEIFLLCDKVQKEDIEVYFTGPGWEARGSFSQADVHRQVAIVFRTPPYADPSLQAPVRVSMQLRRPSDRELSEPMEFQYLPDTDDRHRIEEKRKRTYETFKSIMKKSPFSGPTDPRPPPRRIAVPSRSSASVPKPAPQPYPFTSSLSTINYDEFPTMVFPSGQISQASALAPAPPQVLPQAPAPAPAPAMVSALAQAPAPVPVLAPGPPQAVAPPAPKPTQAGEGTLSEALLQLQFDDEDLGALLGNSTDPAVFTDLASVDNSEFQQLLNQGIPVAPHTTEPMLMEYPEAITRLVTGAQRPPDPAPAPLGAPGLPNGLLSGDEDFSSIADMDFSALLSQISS

No constants are given. Whether binding was seen depends on the method and setting. Binding seen in cells or lysates may run through a third protein. Some binding calls cover weakened binding; strength is not graded here.

This assay has as its target NF-κB p65, endogenous in 786-O (human (endogenous in 786-O)) (UniProt Q04206). The assay can be described thus: co-IP; 786-O stable cell lines expressing GFP-tagged A1CF or the GFP-tag alone; anti-p65 antibody on Protein A agarose beads; immunoblot of lysates. In general terms: In western blotting, separated proteins are transferred to a membrane and probed.

B1: NF-κB-repressing factor (NKRF), endogenous in 786-O (protein, UniProt O15226 1-690)
chain: MEKILQMAEGIDIGEMPSYDLVLSKPSKGQKRHLSTCDGQNPPKKQAGSKFHARPRFEPVHFVASSSKDERQEDPYGPQTKEVNEQTHFASMPRDIYQDYTQDSFSIQDGNSQYCDSSGFILTKDQPVTANMYFDSGNPAPSTTSQQANSQSTPEPSPSQTFPESVVAEKQYFIEKLTATIWKNLSNPEMTSGSDKINYTYMLTRCIQACKTNPEYIYAPLKEIPPADIPKNKKLLTDGYACEVRCQNIYLTTGYAGSKNGSRDRATELAVKLLQKRIEVRVVRRKFKHTFGEDLVVCQIGMSSYEFPPALKPPEDLVVLGKDASGQPIFNASAKHWTNFVITENANDAIGILNNSASFNKMSIEYKYEMMPNRTWRCRVFLQDHCLAEGYGTKKTSKHAAADEALKILQKTQPTYPSVKSSQCHTGSSPRGSGKKKDIKDLVVYENSSNPVCTLNDTAQFNRMTVEYVYERMTGLRWKCKVILESEVIAEAVGVKKTVKYEAAGEAVKTLKKTQPTVINNLKKGAVEDVISRNEIQGRSAEEAYKQQIKEDNIGNQLLRKMGWTGGGLGKSGEGIREPISVKEQHKREGLGLDVERVNKIAKRDIEQIIRNYARSESHTDLTFSRELTNDERKQIHQIAQKYGLKSKSHGVGHDRYLVVGRKRRKEDLLDQLKQEGQVGHYELVMPQAN
Consider B1, for which the binding result was “binds”.
